# Reference: PubChem BioAssay AID504834 (National Center for Advancing Translational Sciences (NCATS), 2011)
# The campaign covered roughly 320,000 compounds. About 22,000 (6.9%) were called active. Inconclusive means that the source gave no clear call. Such entries were picked first, then a sample of the others. Calls follow the shape of the dose curve; as a rule, active = well fitted inhibition curve with a large enough effect; inconclusive = small, poorly fitted or top-dose-only effect, or another doubt; inactive = no such curve, though single readings can be large or run the other way. Where the call is inconclusive, the potency comes from a doubtful curve fit.
# Assay: Primary qHTS for delayed death inhibitors of the malarial parasite plastid, 96 hour incubation
# Settings: P. falciparum luciferase reporter growth; series mostly up to 28.7 µM
# In short: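 Two parasite generations (96 h, 37 C, 5% CO2) of compound exposure in infected erythrocytes (0.05% parasitemia, 2% hematocrit). Luciferase-reporter P. falciparum; decreased luminescence indicates inhibited growth, aimed at apicoplast-acting delayed death.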
# Potency is read from the fitted curve at half-maximal effect.
row,SMILES,Potency
1,O=C(NC1CCN(S(=O)(=O)c2ccc(Cl)c(F)c2)CC1)c1cccnc1,inactive
2,O=c1c2ccccc2nc(/C=C\c2ccccc2[N+](=O)[O-])n1-c1ccccc1O,"inconclusive: 3.7 µM [inhibitor, partial curve]"
3,CC(CN1CCN(C)CC1)OC(=O)c1ccc(Cl)cc1Cl (stereo not given),"inconclusive: 14.7 µM [inhibitor, partial curve, poor fit]"
4,CCN(CC(=O)Nc1cccc(S(=O)(=O)N(C)c2ccccc2)c1)Cc1cccs1,"inconclusive: 11.7 µM [inhibitor, single point]"
5,CCOc1cc(/C=C2\N=C(C)OC2=O)cc(Br)c1OCCc1ccccc1,"inconclusive: 6.57 µM [inhibitor, partial curve, poor fit]"
6,COC(=O)c1ccc(CN2CCN(CCc3ccccc3)C(CCO)C2)cc1 (stereo not given),inactive
7,Cc1nc2sc(C(c3ccc(Cl)cc3)N3CCN(CCO)CC3)c(O)n2n1 (stereo not given),"inconclusive: 7.38 µM [inhibitor, partial curve, poor fit]"
8,C#CC[N+]1(C)[C@@H]2CC[C@H]1CC(OC(=O)C(CO)c1ccccc1)C2 (stereo not given in full),"inconclusive: 4.15 µM [inhibitor, single point]"
9,CS(=O)(=O)Nc1ccc(-c2ccc(/C=C3\SC(N)=NC3=O)o2)cc1,active: 3.29 µM
10,COc1ccc(NC(=O)c2sc3ncnc(N4CCN(c5ccccn5)CC4)c3c2C)cc1Cl,"inconclusive: 9.28 µM [inhibitor, partial curve, poor fit]"
11,Cc1csc(NC(=O)C2CCCC2)n1,inactive
12,COc1ccc(Cc2nnc(NC(=O)c3ccccc3F)s2)cc1OC,"inconclusive: 18.5 µM [inhibitor, single point]"
13,COc1cc(NC(=O)c2ccccc2-n2cnnn2)cc(OC)c1,inactive
14,CCOC(=O)C1=C(Cn2cnc3ccccc32)NC(=O)NC1c1ccc(OC)cc1 (stereo not given),"inconclusive: 13.1 µM [inhibitor, partial curve, poor fit]"
15,COCCCN1C(=O)C(=O)/C(=C(/O)c2ccccc2)C1c1ccc2c(c1)OCO2 (stereo not given),inactive
16,CN(C)S(=O)(=O)c1ccc(C(=O)OCC(=O)c2csc(N3CCCCC3)n2)cc1,inactive
17,O=C(NC1CCCCC1)n1c(=O)oc2ccc(Cl)cc21,inactive
18,COc1cc(/C=C(/C(=O)c2cccs2)c2nc3ccccc3[nH]2)cc(OC)c1O,"inconclusive: 3.7 µM [inhibitor, partial curve, poor fit]"
19,CCCC[N+]12CCC(CC1)C(Cc1ccccc1)C2 (stereo not given),"inconclusive: 0.522 µM [inhibitor, full curve, poor fit]"
20,CCn1cc([N+](=O)[O-])c(C(=O)N2CCOCC2)n1,inactive
21,CC[C@H]1OC(=O)[C@H](C)[C@@H](O[C@H]2C[C@@](C)(OC)[C@@H](O)[C@H](C)O2)[C@H](C)[C@@H](O[C@@H]2O[C@H](C)C[C@H](N(C)C)[C@H]2O)[C@](C)(O)C[C@@H](C)C(=O)[C@H](C)[C@@H](O)[C@]1(C)O,"inconclusive: 9.28 µM [inhibitor, single point]"
22,Cc1nn(CC(=O)Nc2ccc3c(c2)nc(CN2CCCC2)n3C)c(=O)c2ccccc12,"inconclusive: 8.28 µM [inhibitor, partial curve]"
23,C/C(=N\NC(=O)c1cc(O)ccc1O)c1cccc(NC(=O)c2ccc(Cl)cc2)c1,"inconclusive: 11.7 µM [inhibitor, single point]"
24,O=C(Nc1ccccc1C(F)(F)F)c1ccc(CN2CCC(Cc3ccccc3)CC2)cc1,active: 10.4 µM

row,SMILES,Potency
1,CCC(C(=O)OCC(=O)N(CCOC)c1c(N)n(Cc2ccccc2)c(=O)[nH]c1=O)c1ccccc1 (stereo not given),"inconclusive: 0.0522 µM [inhibitor, full curve, poor fit]"
2,Cc1cc(/C=C(\C#N)C(=O)Nc2ccccc2)c(C)n1-c1ccc2c(c1)OCO2,"inconclusive: 13.1 µM [inhibitor, partial curve, poor fit]"
3,CN(C)C(=O)c1ccc(NC(=O)c2ccccc2-c2ccccc2)cc1,"inconclusive: 18.5 µM [inhibitor, single point]"
4,O=C(O)C1=C[C@H](c2cccs2)C[C@H](OCCCCO)O1,inactive
5,O=C(NC1=NN(c2ccccc2)CC1)Nc1ccccc1F,inactive
6,CCN(CC)c1ccc(/C=N/NC(=O)c2cccc(S(=O)(=O)Nc3ccccc3OC)c2)c(O)c1,active: 11.7 µM
7,c1ccc(C2CCCN(Cc3nc(CC4CC4)no3)CC2)cc1 (stereo not given),inactive
8,Cc1cc(COc2ccccc2)oc1C(=O)O,inactive
9,O=C(Nc1ccc(CN2CCOCC2)cc1)c1cc(Cl)ccc1Cl,inactive
10,O=C(NCc1ccc(F)cc1)N[C@@H](Cc1ccccc1)C(=O)O,"inconclusive: 18.5 µM [inhibitor, single point]"
11,Cc1ccc(N2C(=O)C(CN3CCCCC3)C2c2ccccc2)cc1 (stereo not given),"inconclusive: 13.1 µM [inhibitor, partial curve, poor fit]"
12,N/C(=N\OC(=O)c1ccco1)c1ccccn1,"inconclusive: 0.522 µM [inhibitor, full curve, poor fit]"
13,CCc1nnc(NC(=O)c2cccc(S(=O)(=O)N3CCCCC3)c2)s1,"inconclusive: 10.4 µM [inhibitor, partial curve]"
14,Cc1ccn(CCC(=O)Nc2ccc3c(c2)OCO3)n1,inactive
15,O=c1c(Cc2ccc(Cl)cc2)c(O)ccn1Cc1ccccc1,inactive
16,COc1cccc(CNC(=O)Cc2ccc(NC(=O)C3=C(C)OCCS3)cc2)c1,"inconclusive: 18.5 µM [inhibitor, single point]"
17,O=C(CCN1C(=O)S/C(=C\c2cccs2)C1=O)NC1=NCCS1,inactive
18,C/C(N)=C(/C#N)C(=O)CSc1nc2scc(-c3ccc(F)cc3)c2c(=O)n1C,"inconclusive: 20.8 µM [inhibitor, single point]"
19,O=C(Cc1cccs1)Nc1ccccc1,"inconclusive: 2.62 µM [inhibitor, single point]"
20,O=C(Nc1ccc(Br)c2ccccc12)c1ccc2ccccc2c1O,active: 9.28 µM
21,C=C1CCN([C@@H](C)C(=O)OCc2cccc(C)c2)S(=O)(=O)c2ccccc21,"inconclusive: 14.7 µM [inhibitor, single point]"
22,CCn1ncc([N+](=O)[O-])c1C(=O)Nc1ccc(C)c(C)c1,"inconclusive: 16.5 µM [inhibitor, single point]"
23,O=C(COc1ccc(F)cc1)N1CCC(c2ccccc2)C1 (stereo not given),"inconclusive: 18.5 µM [inhibitor, single point]"
24,CCC(C)(C(=O)NC1CCCC1)N(Cc1ccco1)C(=O)c1ccc2c(c1)OCO2 (stereo not given),"inconclusive: 0.0029 µM [inhibitor, full curve, poor fit]"

# 4 entries drawn at random from those above:
row,SMILES,Potency
9,CS(=O)(=O)Nc1ccc(-c2ccc(/C=C3\SC(N)=NC3=O)o2)cc1,active: 3.29 µM
1,CCC(C(=O)OCC(=O)N(CCOC)c1c(N)n(Cc2ccccc2)c(=O)[nH]c1=O)c1ccccc1 (stereo not given),"inconclusive: 0.0522 µM [inhibitor, full curve, poor fit]"
12,COc1ccc(Cc2nnc(NC(=O)c3ccccc3F)s2)cc1OC,"inconclusive: 18.5 µM [inhibitor, single point]"
17,O=C(CCN1C(=O)S/C(=C\c2cccs2)C1=O)NC1=NCCS1,inactive

# (more compounds)

row,SMILES,Potency
1,Cc1ccc(C2Oc3ccccc3C3=C2C(c2cccs2)n2ncnc2N3)cc1 (stereo not given),"inconclusive: 10.4 µM [inhibitor, single point]"
2,CCOC(=O)N1CCN(C(=O)/C(=C/c2cccc3ccccc23)NC(=O)c2ccc(OC)cc2)CC1,active: 9.28 µM
3,O=C(O)CC(C(=O)NCc1ccccc1)C1CCCO1 (stereo not given),inactive
4,CC(C)C(C)NC(=O)COC(=O)c1cc(S(=O)(=O)N(C)C)ccc1N1CCCC1 (stereo not given),inactive
5,O=c1c2ccccc2oc2nc(-c3ccco3)n(CCc3ccccc3)c(=O)c12,inactive
6,Cc1cc([N+](=O)[O-])nn1CCCC(=O)Nc1cccc(Cl)c1Cl,inactive
7,Cc1cc(C)n2c(SCCN3C(=O)c4ccccc4C3=O)nnc2n1,"inconclusive: 16.5 µM [inhibitor, single point]"
8,COc1ccccc1-n1c(SCC(=O)Nc2ccc(NC(C)=O)cc2)nc2c([nH]c3ccccc32)c1=O,active: 13.1 µM
9,CCOP(=O)(OCC)C(O)c1ccc(OC)c(OC)c1 (stereo not given),inactive
10,Cc1ccc(C(=O)Nc2nc(N)n(-c3ccccc3)n2)cc1,inactive
11,CC(=O)Nc1nc2ccccc2n1CCN1CCOCC1,inactive
12,Cn1c(=O)c2c(nc(-c3ccccc3)n2C)n(Cc2ccccc2)c1=O,"inconclusive: 18.5 µM [inhibitor, single point]"
13,O=C(Nc1nc(-c2ccccn2)cs1)c1ccc(-c2ccccc2F)o1,"inconclusive: 10.4 µM [inhibitor, single point]"
14,CCCCCn1c(SCC#N)nc2cc(C(=O)NCC3CCCO3)ccc2c1=O (stereo not given),active: 4.65 µM
15,COc1ccc(C(=O)C(C)OC(=O)c2cccc(S(=O)(=O)Nc3cc(Cl)c(OC)cc3OC)c2)cc1 (stereo not given),inactive
16,CCOC(=O)c1c(C)oc2c1c(C=NCc1ccccn1)c(O)c1ccccc12,"inconclusive: 11.7 µM [inhibitor, partial curve]"
17,COc1ccc(OC)c(S(=O)(=O)NCc2cc(-c3ccccc3)no2)c1,"inconclusive: 11.7 µM [inhibitor, single point]"
18,O=C1c2cccc([N+](=O)[O-])c2C(=O)N1c1ccccc1,"inconclusive: 0.0074 µM [inhibitor, full curve, poor fit]"
19,CC(C(=O)N(C1CC1)C1(C(=O)Nc2ccccc2)CCCC1)N1C(=O)c2ccccc2C1=O (stereo not given),"inconclusive: 13.1 µM [inhibitor, single point]"
20,Cc1oc2cc3oc(=O)c4c(c3cc2c1C)CCC4,"inconclusive: 4.15 µM [inhibitor, single point]"
21,CCCOc1ccc(C(=O)CCC(=O)OCC(=O)N(C)c2c(N)n(Cc3ccccc3)c(=O)[nH]c2=O)cc1,inactive
22,CCOc1cccc(C2C(C#N)=C(N)Oc3cc(C)n(Cc4ccccn4)c(=O)c32)c1OCC (stereo not given),"inconclusive: 0.329 µM [inhibitor, full curve, poor fit]"
